Source: paper PMC10434240

The chains behind the UniProt entries cited, without tags or fusion partners.
UniProt P90623: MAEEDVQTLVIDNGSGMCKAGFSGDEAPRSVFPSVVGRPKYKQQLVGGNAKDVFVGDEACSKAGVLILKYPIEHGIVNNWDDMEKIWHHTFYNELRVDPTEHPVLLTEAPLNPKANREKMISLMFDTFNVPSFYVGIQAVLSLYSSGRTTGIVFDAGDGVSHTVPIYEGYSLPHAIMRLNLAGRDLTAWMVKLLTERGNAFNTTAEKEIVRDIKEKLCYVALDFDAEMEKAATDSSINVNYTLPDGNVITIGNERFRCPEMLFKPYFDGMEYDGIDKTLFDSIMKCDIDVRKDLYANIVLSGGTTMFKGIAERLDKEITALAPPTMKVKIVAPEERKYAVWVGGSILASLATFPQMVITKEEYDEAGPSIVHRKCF

B1: G-protein α subunit, putative (protein, UniProt A2EB65 1-363)
chain: MGCGASSAEDTTKQAEQPAQEKPKAAEPKEDGIPIKKSNAEAKEKILTLGAGECGKTTLWRQLKITYCGGFTDSERRNLINALRTAIVGDIQLLVSTAENSNQNFLTEIQSDIDCIKNLDVAQPDDFTTESAESIAKVWADPAIKNVYKASNSIGIGENADYFLDNVKRIADPSYTPTNDDILKARIRTVGISNLTFDVKGIPTNLVDVGGQRNERKNWSKCFQNVTYVMFVVSLSDFDQTLFEDESTTRTADSIELFKNIASTPIFESTPFFLVLNKFDLFQKKIKKSPEAFNSAYPGFTGDINNKDDCINHIKETFINHLPPNRSPDAWIEAIPTCAMDSQSVRNLFQRIAQKIVEKYPSA
B2: IBD domain-containing protein (protein, UniProt A2EJL0 1-214)
chain: MESGDKQSQLNANELIALQTFLSDSDSAAALCTTEVVDPIGLQFIPKSTWANYKLTSVSALHDSYFSKKNSVTRRFEHKLWNCLRITQVFPSLTKIIGVCWVDNRIIKVYKHPFAKFLSIQCVDGALFHKQGNFSRHGFVDMSEQEAQQQLSPEAYADVDFRDVHLIYHQNGQFTADATEESIANCKWVDPAPATRVAALKLNNPSAEAQMTLE
B3: Ribosomal protein, putative (protein, UniProt A2E4D0 1-370)
chain: MSRQTVNVLAQDGQKASTIELPKVFDTPIRAEVVKEVYVNLAKNAQQPHANDPMAGKKVSAISWGTGRAKACVPRVNGSGSNRNGQGAYANFCRGGHRFNPPTLLRRWFRPVPSRQRKFAIASAIAATAVVPLVQARGHVLGEVKEVPIVVVDAVQEIKRTRDAVELLKKVGVYGDVQRVLDGSVHRSSKGKFRRAAYKTKKGPLVIYNEDKGIVKAFRNIPGVETISVKALALAKLAPAAQVGRLTVWTESAFKALDGIYESKKRFSLPRSIMTNADIEAVITSDAVQSVLNEKKEVVPLPKCRCCKKLSVGACEDWQKALKEVAELRAAQEAKRTSPEVVKAVFAEAVAAQPATPDNMSTQIINHIPL
B4: Elongation factor 1α (protein, UniProt A2DSF6 1-437)
chain: MGKEKEHINIVVIGHVDAGKSTTTGHLIYKCGGLDKRKLAAIEKEAEQLGKSSFKYAFVMDSLKAERERGITIDISLWKFEGQKFSFTIIDAPGHRDFIKNMITGTSQADAAILVIDSTLGGFEAGIAEQGQTREHALLAFTLGIKQVIVAVNKMDDKTVNYNKARFDEITAEMTRILTGIGYKPEMFRFVPISGWAGDNMTEKSPNMPWYNGPYLLEALDSLQPPKRPFDKPLRLPLQDVYKINGIGTVPVGRVESGTMKPGMIVNFAPSTVTAEVKSIEMHHESLPEALPGDNIGFNVKNVSTADVKRGYVVGDTKRDPPVECASFTAQMIISNHPGKIHAGYQPVFDCHTAHIACKFDKLIQRIDRRHGKKATENPEYIQKDDAAIVEVVPSKPLVVESFQEYPPLGRFAIRDMKQTVAVGVIRSVNKKPNPIK
B5: Tr-type G-domain-containing protein (protein, UniProt A2ECS2 1-841)
chain: MVNFTVAQIREVMNKRHNIRNLSVIAHVDHGKSTLTDSLIARAGIISQENAGEMRFTDTRPDEQERCITIKSTGVSLYYTMPKEDLPEDNVDNGFLINLIDSPGHIDFSAEVTAALRVTDGALVVVDCIEGVCVQTETVLRQALSERIKPVVIINKIDRSLLELNAEPEDMYQTYTKSIDMVNVIIATYTDENGPMGDITVSPAKGTVAFGSGLHSFGFTVTKFAKIYAARFGVPVQKLIPQLWGERFYDPISKCFISHATNEKGQALERSFCQFILKPIVSLSRAIMNGEKDKYTDMFKKLNVKLHDDEIHKEGRELLSAVYRRWIPMSEALLEMIVLHLPSPVKAQAYRAETLYTGPLDDACAKAIRACDPNGPLMLYVSKMVPTTDKGRFYAFGRVFSGTVATGQRVRVMGANYIPGGKDDIHVTNIQRTVLMMGRKVENLQDCPCGNTIGLVGIDQYLVKSGTISDHDDACPIKAMKFSVSPVVRVAVEPKIAQDLPKLVEGLNRLAKSDPCVQVTHEETGEHIIAGAGELHLEICLKDLEEDFAGVPITRSPPVVSFRETVQKLSSCVCMSKSANKLNRLMCQAEPIADNLLKAIEAGDVNPRMDVKTRAKILQNDFGWEQNDARRVWSFGPDSSGPNLLVDTTKSAEYLQEVKEHFISSFQWATKLGVLAEEPLRGVRFNVVEVFLHADAAHRNGGQMVPTGRRVLYASEYTAEPTLVEPVYLCEISAPISVCGGVHAILSKRRGRAFDQTQRDGTPLMNIKAYLPVMESFGFDKDLRGATSGQAFPQMIFDHWEPLEGDPFHAGNGLYEAIKVVRKRKGLSEEVPPLDRYLDKL

Molecular target: HA-TvActin (Trichomonas vaginalis) (UniProt P90623)
Assay: affinity purification with mass spectrometry; HA-TvActin immunoprecipitated with anti-HA agarose beads from lysate of transgenic TH17 trophozoites (1% Triton X-100, 5 mM EDTA in TBS, 4°C overnight); SDS-PAGE, LC-MS/MS, label-free emPAI

Row | Binder | binding
1 | B1 | binds
2 | B2 | binds
3 | B3 | binds
4 | B4 | binds
5 | B5 | binds

Results are given in words; binding and its absence hold for the method and conditions named. Binding seen in cells or lysates may run through a third protein. Here binding means that the protein was enriched with, or labelled near, the bait; the list need not be complete.
